# PubChem BioAssay AID602196 – INSERM, 2012
# Screen: 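Genes whose knock-down alters cisplatin killing of lung cancer cells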
# System: human A549 lung cancer cells
# Knock-down reagent: siRNA pair against human genes
# Time to read-out: 48 h transfection before cisplatin; time from cisplatin to read-out not stated
# Challenge: cisplatin at a dose killing half of control-siRNA cells; exact dose and duration not given
# Measurement: 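Cisplatin cell death as a shift from the 50% death seen with control siRNA; siRNAs toxic or growth-blocking alone scored 0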
# Reading the numbers: two-siRNA summed score (-2 to +2): higher = both siRNAs protect from cisplatin killing; -2 means both sensitise; mean protection from cisplatin (shift in death) and protection from cisplatin (shift in death), siRNA C and protection from cisplatin (shift in death), siRNA D: higher = protection from cisplatin killing
# Hit rule: 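Each siRNA scores 0 if harmful alone by LDH or WST-1, otherwise +1 if it reduces and -1 if it increases cisplatin killing; a gene is active when both siRNAs agree (sum +2 or -2)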
# Calls: active = both siRNAs shift cisplatin killing the same way; inactive = no consistent shift, or siRNA harmful alone
# The whole screen tested about 23,000 reagents; below is an unselected part. Over the whole deposit, 455 (2%) are marked active. 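Active includes both protection and sensitisation; some change values fall well beyond the stated -50 to +50 range.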 Entries without a mark were called inactive. Reagents against one gene are numbered here. Not stated in the record: the amount of reagent.
gene,reagent no.,two-siRNA summed score (-2 to +2),mean protection from cisplatin (shift in death) (%),"protection from cisplatin (shift in death), siRNA C (%)","protection from cisplatin (shift in death), siRNA D (%)"
GTF2IRD1,1,0,9.5,4.9,14
LOC440687,1,0,11.1,8.1,14.2
MGC10334,1,0,6.7,15.1,-1.6
LOC388969,1,0,15.7,-4.7,36.1
LOC441632,1,1,-2.6,11.1,-16.3
LOC441742,1,-1,-2.5,-9.6,4.5
MYNN,1,0,-2.2,0.5,-4.8
EID2B,1,0,1.6,-1.5,4.8
TINAG,1,0,-8,-10.6,-5.3
LOC440804,1,0,0.5,2.7,-1.7
BIK,1,1,12.9,24.7,1.1
NEBL,1,0,14.1,12.7,15.5
NEBL,2,1,7.9,10.1,5.7
TRPV6,1,1,-3.1,-32,25.8
BTF3,1,0,8.2,10.1,6.4
ZNF148,1,1,12.9,5.5,20.3
SLC35G2,1,0,-0.2,5.4,-5.8
HSPC047,1,0,6.9,1.5,12.4
NUP133,1,0,9.7,11.9,7.6
ARPC2,1,0,8.4,12.8,3.9
LOC440237,1,0,4.9,3,6.8
BAG2,1,1,17.8,23,12.7
RACGAP1,1,-1,-11.7,-28.3,4.8
PDXP,1,0,5.8,-2.2,13.8
FLJ90231,1,0,7.2,-2.8,17.2
LOC283604,1,1,0.6,-9.1,10.2
THAP11,1,-1,-13.1,-18.3,-7.9
LOC440206,1,0,17.2,15.1,19.2
ERBB3,1,0,17.7,24.3,11.2
MED22,1,0,6.1,5.3,6.8
GPR132,1,0,-3.5,3.3,-10.3
GMPR2,1,-1,-25.6,-25.2,-26
LOC343069,1,1,17,7.6,26.5
RFPL3,1,-1,-17.8,-9.7,-25.8
DDX19B,1,0,10.6,8.9,12.3
DDX19B,2,0,32.9,58.3,7.6
BFSP2,1,1,16.9,9.2,24.6
KRT12,1,-1,-13,-17.6,-8.4
DCD,1,-1,-7.9,-29.7,13.9
WDR5,1,0,-18.2,-10.5,-25.8
LOC402193,1,0,5.8,-4.6,16.2
LAG3,1,0,-3,-3,-3.1
LOC388898,1,0,13.7,15.6,11.8
LOC441100,1,1,12.8,7.8,17.9
LOC439998,1,0,6.6,5,8.1
NUP88,1,1,16.2,16.4,16
LOC441348,1,0,10.5,-0.3,21.3
LOC400576 (retired record),1,0,1.4,5.1,-2.4
GPR45,1,-1,1.9,-15.9,19.7
LOC389071,1,0,5.1,7.9,2.3
CNIH1,1,0,10,17.1,2.9
SPANXD,1,-1,-2,-15.7,11.7
RBM38,1,0,7.1,10.2,4
ADPRHL1,1,0,2.4,10.4,-5.6
ADPRHL1,2,0,2.7,3.4,2
SATL1,1,1,9.2,1.1,17.3
HP1BP3,1,0,4.4,9,-0.1

Sorted by “mean protection from cisplatin (shift in death) (%)” (high to low): some entries from above
gene,reagent no.,two-siRNA summed score (-2 to +2),mean protection from cisplatin (shift in death) (%),"protection from cisplatin (shift in death), siRNA C (%)","protection from cisplatin (shift in death), siRNA D (%)"
DDX19B,2,0,32.9,58.3,7.6
DDX19B,1,0,10.6,8.9,12.3
RFPL3,1,-1,-17.8,-9.7,-25.8
